Measurements published in the supplement of paper PMC10849652.
The list shows a part of the results. Residues, ends and D or L forms follow the SMILES beside them. *: point of attachment. Cbz = O=C(OCc1ccccc1)*

Sequences of proteins named here, by UniProt entry; tags and fusion partners are left off. A change or cut given only in a name is not applied to a line headed by its entry.
UniProt O15120: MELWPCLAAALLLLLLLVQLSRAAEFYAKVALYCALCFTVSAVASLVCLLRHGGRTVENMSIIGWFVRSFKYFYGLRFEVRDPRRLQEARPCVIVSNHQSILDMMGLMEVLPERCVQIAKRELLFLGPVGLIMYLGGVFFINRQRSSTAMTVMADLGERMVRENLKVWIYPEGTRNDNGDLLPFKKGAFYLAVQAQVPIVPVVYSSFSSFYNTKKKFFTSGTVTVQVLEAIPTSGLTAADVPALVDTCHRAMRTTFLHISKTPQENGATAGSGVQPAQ
UniProt Q9H553: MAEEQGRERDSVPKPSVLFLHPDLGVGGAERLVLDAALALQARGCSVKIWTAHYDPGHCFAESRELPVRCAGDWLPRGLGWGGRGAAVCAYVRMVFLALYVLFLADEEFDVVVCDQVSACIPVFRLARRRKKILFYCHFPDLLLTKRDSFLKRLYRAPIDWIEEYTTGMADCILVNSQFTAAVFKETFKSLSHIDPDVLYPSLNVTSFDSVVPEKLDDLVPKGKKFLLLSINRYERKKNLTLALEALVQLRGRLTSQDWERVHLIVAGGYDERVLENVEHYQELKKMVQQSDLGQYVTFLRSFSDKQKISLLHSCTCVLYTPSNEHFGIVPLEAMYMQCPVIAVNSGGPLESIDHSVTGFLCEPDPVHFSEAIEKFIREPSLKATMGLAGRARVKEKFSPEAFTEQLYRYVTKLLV
UniProt Q9BT22: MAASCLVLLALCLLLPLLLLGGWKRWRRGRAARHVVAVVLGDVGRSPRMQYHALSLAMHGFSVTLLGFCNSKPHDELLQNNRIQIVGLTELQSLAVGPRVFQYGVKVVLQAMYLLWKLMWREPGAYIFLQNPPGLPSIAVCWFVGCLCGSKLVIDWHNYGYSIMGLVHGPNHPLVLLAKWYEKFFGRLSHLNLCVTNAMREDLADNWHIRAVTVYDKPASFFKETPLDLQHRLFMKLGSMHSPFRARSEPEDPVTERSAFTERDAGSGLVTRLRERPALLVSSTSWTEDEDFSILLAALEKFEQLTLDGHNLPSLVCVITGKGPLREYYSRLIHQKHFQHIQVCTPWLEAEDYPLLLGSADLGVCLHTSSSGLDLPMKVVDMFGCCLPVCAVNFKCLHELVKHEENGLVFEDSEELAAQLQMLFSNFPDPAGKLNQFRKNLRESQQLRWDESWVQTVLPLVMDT
UniProt Q9UKV8, whole entry, looked up: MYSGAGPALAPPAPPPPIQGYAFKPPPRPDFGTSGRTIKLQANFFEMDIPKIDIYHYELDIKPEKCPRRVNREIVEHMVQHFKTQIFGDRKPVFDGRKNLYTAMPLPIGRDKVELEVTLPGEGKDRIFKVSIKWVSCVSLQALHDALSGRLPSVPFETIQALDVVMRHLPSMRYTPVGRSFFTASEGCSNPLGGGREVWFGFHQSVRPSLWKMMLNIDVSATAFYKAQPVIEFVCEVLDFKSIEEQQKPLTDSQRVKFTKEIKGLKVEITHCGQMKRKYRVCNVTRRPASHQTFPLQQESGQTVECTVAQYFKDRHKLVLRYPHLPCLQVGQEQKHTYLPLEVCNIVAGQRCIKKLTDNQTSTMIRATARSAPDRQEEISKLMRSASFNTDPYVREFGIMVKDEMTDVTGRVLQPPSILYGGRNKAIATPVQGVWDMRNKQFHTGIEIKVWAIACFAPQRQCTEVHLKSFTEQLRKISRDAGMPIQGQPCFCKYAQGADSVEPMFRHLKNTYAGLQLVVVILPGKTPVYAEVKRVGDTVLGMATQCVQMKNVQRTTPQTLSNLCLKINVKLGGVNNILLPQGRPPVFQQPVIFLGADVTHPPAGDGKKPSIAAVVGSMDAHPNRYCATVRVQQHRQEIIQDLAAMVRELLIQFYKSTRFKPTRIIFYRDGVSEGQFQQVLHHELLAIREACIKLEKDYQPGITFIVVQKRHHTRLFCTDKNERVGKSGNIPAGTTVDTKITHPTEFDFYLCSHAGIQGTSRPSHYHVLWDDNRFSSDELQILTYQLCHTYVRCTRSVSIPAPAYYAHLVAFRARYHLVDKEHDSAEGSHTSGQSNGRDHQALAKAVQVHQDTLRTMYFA
UniProt Q3SY69: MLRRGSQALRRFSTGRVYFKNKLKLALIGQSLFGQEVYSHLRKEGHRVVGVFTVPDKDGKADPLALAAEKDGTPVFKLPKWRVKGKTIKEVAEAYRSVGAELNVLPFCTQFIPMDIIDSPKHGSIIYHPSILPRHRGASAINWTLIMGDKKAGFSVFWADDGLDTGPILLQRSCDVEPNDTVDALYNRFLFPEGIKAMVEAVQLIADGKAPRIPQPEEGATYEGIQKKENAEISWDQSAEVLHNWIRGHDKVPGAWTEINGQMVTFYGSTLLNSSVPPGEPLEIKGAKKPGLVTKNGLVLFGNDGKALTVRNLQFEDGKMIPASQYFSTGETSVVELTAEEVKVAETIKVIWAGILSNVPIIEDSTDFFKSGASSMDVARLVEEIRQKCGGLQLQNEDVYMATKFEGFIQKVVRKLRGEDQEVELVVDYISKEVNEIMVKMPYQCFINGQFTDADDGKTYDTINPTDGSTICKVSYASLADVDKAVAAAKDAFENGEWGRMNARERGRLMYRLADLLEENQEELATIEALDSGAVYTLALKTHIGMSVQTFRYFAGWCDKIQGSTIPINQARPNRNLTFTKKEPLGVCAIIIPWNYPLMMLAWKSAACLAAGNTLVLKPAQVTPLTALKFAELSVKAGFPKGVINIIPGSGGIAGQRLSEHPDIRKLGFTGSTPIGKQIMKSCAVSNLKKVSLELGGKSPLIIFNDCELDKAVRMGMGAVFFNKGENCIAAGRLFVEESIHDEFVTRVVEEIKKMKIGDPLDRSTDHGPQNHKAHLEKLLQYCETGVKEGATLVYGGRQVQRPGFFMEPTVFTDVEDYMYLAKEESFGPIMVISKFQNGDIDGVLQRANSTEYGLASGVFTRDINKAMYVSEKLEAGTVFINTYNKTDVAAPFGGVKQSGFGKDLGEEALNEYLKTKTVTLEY
UniProt P00352: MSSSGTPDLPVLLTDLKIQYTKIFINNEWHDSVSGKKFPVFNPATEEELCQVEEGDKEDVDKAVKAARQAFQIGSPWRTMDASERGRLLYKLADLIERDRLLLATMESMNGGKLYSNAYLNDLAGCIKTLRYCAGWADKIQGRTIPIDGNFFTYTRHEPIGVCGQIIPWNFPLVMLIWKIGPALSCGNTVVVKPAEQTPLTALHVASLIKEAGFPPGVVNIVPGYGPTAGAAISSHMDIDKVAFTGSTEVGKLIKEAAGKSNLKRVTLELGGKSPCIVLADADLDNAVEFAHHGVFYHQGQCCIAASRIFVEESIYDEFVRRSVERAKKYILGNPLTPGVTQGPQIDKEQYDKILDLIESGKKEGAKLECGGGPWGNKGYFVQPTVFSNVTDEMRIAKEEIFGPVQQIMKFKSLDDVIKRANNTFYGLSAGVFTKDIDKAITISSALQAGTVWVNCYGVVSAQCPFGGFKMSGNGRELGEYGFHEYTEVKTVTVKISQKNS
UniProt P23526: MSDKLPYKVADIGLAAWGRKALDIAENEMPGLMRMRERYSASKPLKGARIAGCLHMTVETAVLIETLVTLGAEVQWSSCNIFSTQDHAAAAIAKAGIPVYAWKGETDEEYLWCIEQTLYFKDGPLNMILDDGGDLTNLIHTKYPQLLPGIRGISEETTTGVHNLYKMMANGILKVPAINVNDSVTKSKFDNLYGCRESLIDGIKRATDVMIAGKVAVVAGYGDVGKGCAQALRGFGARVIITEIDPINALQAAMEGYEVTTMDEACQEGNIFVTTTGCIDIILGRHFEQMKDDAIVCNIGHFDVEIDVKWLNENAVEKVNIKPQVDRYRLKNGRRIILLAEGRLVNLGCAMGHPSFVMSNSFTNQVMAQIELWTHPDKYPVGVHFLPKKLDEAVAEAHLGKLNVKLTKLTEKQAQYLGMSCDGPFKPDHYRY
UniProt Q9UM13, whole entry, looked up: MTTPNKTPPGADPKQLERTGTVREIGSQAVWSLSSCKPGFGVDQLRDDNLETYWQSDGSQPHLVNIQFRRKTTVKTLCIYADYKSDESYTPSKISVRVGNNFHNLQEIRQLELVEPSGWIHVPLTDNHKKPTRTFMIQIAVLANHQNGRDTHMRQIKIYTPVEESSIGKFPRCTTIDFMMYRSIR
UniProt P27144: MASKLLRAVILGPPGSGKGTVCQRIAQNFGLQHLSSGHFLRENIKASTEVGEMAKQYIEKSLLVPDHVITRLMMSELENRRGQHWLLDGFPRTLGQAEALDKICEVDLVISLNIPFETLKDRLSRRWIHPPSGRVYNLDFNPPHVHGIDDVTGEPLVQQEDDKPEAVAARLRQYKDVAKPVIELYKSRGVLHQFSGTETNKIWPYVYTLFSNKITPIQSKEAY
UniProt Q02952: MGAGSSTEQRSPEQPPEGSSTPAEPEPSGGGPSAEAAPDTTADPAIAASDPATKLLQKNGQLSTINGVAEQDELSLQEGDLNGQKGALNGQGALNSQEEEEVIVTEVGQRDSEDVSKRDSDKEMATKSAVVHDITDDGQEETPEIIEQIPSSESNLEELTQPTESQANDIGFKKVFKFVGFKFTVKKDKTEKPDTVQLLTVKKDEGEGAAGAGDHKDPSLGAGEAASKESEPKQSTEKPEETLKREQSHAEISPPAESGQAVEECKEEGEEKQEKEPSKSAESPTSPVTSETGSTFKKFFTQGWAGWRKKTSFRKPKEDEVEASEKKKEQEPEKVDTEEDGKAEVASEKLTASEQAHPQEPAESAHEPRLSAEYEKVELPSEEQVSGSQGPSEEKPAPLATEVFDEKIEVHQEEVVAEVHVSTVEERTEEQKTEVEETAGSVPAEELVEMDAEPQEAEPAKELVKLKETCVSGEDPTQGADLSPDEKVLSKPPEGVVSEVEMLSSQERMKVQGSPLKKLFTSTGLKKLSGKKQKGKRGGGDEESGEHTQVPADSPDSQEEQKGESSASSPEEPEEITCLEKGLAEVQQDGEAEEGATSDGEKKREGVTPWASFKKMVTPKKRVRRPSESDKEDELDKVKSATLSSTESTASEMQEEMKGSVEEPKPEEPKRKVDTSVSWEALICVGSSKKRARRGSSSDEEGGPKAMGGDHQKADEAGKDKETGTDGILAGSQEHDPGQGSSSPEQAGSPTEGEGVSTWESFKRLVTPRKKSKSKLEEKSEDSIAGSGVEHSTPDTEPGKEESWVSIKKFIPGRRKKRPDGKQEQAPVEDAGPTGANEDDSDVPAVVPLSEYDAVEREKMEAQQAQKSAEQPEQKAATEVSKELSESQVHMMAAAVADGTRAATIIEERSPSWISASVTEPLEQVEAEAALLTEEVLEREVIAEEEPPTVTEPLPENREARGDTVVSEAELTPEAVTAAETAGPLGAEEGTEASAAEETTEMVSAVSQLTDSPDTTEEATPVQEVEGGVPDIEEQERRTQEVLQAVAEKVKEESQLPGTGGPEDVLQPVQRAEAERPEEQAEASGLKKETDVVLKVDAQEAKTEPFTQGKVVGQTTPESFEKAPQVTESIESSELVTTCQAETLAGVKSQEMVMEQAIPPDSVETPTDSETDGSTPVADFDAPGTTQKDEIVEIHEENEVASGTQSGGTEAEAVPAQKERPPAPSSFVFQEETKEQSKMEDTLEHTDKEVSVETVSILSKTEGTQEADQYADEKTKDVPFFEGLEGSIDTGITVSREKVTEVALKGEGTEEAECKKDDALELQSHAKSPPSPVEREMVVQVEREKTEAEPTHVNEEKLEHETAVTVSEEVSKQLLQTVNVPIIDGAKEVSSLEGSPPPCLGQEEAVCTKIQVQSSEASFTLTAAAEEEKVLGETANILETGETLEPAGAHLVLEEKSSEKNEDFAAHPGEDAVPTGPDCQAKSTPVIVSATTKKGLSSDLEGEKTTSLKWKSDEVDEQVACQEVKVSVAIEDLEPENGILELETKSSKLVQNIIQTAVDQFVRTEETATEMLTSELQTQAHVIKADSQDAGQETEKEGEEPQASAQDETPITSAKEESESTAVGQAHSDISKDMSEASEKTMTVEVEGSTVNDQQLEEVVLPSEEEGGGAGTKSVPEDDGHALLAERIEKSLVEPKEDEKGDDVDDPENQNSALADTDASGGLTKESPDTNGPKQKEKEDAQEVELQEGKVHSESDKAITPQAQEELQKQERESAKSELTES
UniProt Q9Y303: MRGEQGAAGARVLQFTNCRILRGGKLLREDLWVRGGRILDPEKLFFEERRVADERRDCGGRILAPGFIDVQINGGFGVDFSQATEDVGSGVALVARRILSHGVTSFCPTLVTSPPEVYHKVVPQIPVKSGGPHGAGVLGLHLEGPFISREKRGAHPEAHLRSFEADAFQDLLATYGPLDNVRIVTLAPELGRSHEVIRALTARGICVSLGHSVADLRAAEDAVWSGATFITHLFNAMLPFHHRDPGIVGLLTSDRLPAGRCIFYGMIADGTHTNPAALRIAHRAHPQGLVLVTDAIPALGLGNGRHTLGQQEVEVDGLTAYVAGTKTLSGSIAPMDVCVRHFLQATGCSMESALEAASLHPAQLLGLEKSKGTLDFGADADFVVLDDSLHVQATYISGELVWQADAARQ

Assays:
Experiment in all cases: log2 fold change, soluble protein after heating vs DMSO (PISA); higher = thermal stabilisation; K562 cells, 10 uM, 30 min; active = over 0.2 and 3.5 SD of the protein, either way, in both replicates (recomputed)
IRAK-1-4 Inhibitor I = compound: C1COCCN1CCN2C3=CC=CC=C3N=C2NC(=O)C4=CC(=CC=C4)[N+](=O)[O-] [IRAK-1-4 Inhibitor I]
How it was run: (§1)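 Soluble protein was defined as the supernatant after 21,000xg for 90 min. It came from K562 cells at 2×10^6 cells/mL given 10 μM compound for 30 min, heated in aliquots for 3 min across 48°C-58°C, pooled, and extracted in PBS with 0.5% NP-40 at 4°C, and was quantified by TMTpro 16plex LC-MS/MS with equalised channel sums. Thermal stability against control samples, from duplicates, is reported as log2 fold change.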

ibrutinib = compound: C=CC(=O)N1CCC[C@@H](n2nc(-c3ccc(Oc4ccccc4)cc3)c3c(N)ncnc32)C1 [ibrutinib]
How it was run: as §1

[1] = compound: CC(=O)c1cnc2ccc(-c3cc(Cl)c(O)c(Cl)c3)nc2c1N[C@H]1CC[C@H](CN(C)C)CC1
How it was run: as §1

ralimetinib = compound: CC(C)(C)Cn1c(N)nc2ccc(-c3[nH]c(C(C)(C)C)nc3-c3ccc(F)cc3)nc21 [ralimetinib]
How it was run: as §1

[2] = compound: CC(C)(O)CC(=O)NCCn1ccc2ncnc(Nc3ccc(Oc4cccc(C(F)(F)F)c4)c(Cl)c3)c21
How it was run: as §1

[3] = compound: CC(C)C1=C2N=C(C=C(N2N=C1)NCC3=CC=CC=C3)NCCCCCCN
How it was run: as §1

[4] = compound: CC(C)C[C@@H](C=O)NC(=O)[C@H](CC(C)C)NC(=O)[C@H](CC(C)C)NC(=O)OCc1ccccc1
How it was run: as §1

pinometostat = compound: CC(C)N(C[C@H]1O[C@@H](n2cnc3c(N)ncnc32)[C@H](O)[C@@H]1O)[C@H]1C[C@@H](CCc2nc3cc(C(C)(C)C)ccc3[nH]2)C1 [pinometostat]
How it was run: as §1

[5] = compound: CC1=C(C(CC(=O)N1)C2=CC=C(C=C2)C(F)(F)F)C(=O)NC3=C(C=C4C(=C3)C=NN4)F
How it was run: as §1

[6] = compound: CC1=C(C2=C(C=C1)C(=O)C3=CC=CC=C3N2CCCN)C
How it was run: as §1

[7] = compound: CC1=C(C=C(C=C1)NC(=O)C2=CC(=CC=C2)C(C)(C)C#N)NC3=CC4=C(C=C3)N=CN(C4=O)C
How it was run: as §1

[8] = compound: CC1=C(C=C(C=C1)NC(=O)C2=CC(=CC=C2)N(C)C)NC(=O)C3=CC=C(C=C3)O
How it was run: as §1

[9] = compound: CC1=CC=C(C=C1)SC2=C3C=C(SC3=CN=C2)C(=O)N
How it was run: as §1

[10] = compound: CC1=NC(=CC=C1)C2=C(N=C(N2)C(C)(C)C)C3=CC4=NC=CN=C4C=C3
How it was run: as §1

Nexturastat A = compound: CCCCN(Cc1ccc(C(=O)NO)cc1)C(=O)Nc1ccccc1 [Nexturastat A]
How it was run: as §1

vemurafenib = compound: CCCS(=O)(=O)Nc1ccc(F)c(C(=O)c2c[nH]c3ncc(-c4ccc(Cl)cc4)cc23)c1F [vemurafenib]
How it was run: as §1

[11] = compound: CCCS(=O)(=O)Nc1ccc(F)c(C(=O)c2c[nH]c3ncc(Cl)cc23)c1F
How it was run: as §1

[12] = compound: CCCc1cc(C)[nH]c(=O)c1CNC(=O)c1cc(-c2ccnc(N3CCN(C)CC3)c2)cc2c1cnn2C(C)C
How it was run: as §1

givinostat = compound: CCN(CC)Cc1ccc2cc(COC(=O)Nc3ccc(C(=O)NO)cc3)ccc2c1 [givinostat]
How it was run: as §1

barasertib = compound: CCN(CCCOc1ccc2c(Nc3cc(CC(=O)Nc4cccc(F)c4)[nH]n3)ncnc2c1)CCOP(=O)(O)O [barasertib]
How it was run: as §1

Measured: log2 fold change

AKAP1 (UniProt Q92667)
inactive: IRAK-1-4 Inhibitor I -0.098 | ibrutinib -0.034 | [1] -0.082 | ralimetinib 0.14 | [2] 0.042 | [3] -0.176 | [4] 0.046 | pinometostat 0.197 | [5] 0.032 | [6] 0.042 | [7] 0.004 | [8] 0.003 | [9] -0.033 | [10] -0.081 | Nexturastat A 0.2 | vemurafenib -0.01 | [11] 0.057 | [12] 0.115 | givinostat 0.065 | barasertib -0.008

AGPAT2 (UniProt O15120)
inactive: IRAK-1-4 Inhibitor I 0.162 | ibrutinib -0.071 | [1] -0.097 | ralimetinib -0.059 | [2] -0.048 | [3] 0.053 | [4] 0.05 | pinometostat -0.073 | [5] -0.033 | [6] 0.087 | [7] 0.029 | [8] -0.022 | [9] -0.068 | [10] -0.091 | Nexturastat A -0.103 | vemurafenib 0.066 | [11] 0.001 | [12] -0.057 | givinostat -0.074 | barasertib -0.076

ANAPC1 (UniProt Q9H1A4)
inactive: IRAK-1-4 Inhibitor I -0.043 | ibrutinib -0.025 | [1] -0.01 | ralimetinib 0.034 | [2] -0.02 | [3] -0.059 | [4] -0.018 | pinometostat 0.035 | [5] 0.009 | [6] -0.033 | [7] -0.011 | [8] 0.007 | [9] -0.013 | [10] -0.024 | Nexturastat A 0.029 | vemurafenib -0.007 | [11] 0 | [12] 0.04 | givinostat 0.003 | barasertib -0.007

AGO4 (UniProt Q9HCK5)
inactive: IRAK-1-4 Inhibitor I -0.049 | ibrutinib 0.027 | [1] -0.023 | ralimetinib -0.025 | [2] 0.087 | [3] 0.081 | [4] 0.073 | pinometostat 0.011 | [5] -0.025 | [6] 0.134 | [7] 0.023 | [8] 0.035 | [9] -0.072 | [10] 0.083 | Nexturastat A 0.175 | vemurafenib 0.018 | [11] -0.025 | [12] -0.098 | givinostat -0.004 | barasertib -0.13

ALG2 (UniProt Q9H553)
inactive: IRAK-1-4 Inhibitor I 0.038 | ibrutinib -0.031 | [1] -0.044 | ralimetinib -0.033 | [2] -0.017 | [3] -0.002 | [4] 0.009 | pinometostat 0 | [5] -0.032 | [6] 0.036 | [7] 0.001 | [8] -0.02 | [9] 0 | [10] 0.005 | Nexturastat A -0.062 | vemurafenib 0.04 | [11] 0.031 | [12] 0.018 | givinostat 0.009 | barasertib 0.055

ALG1 (UniProt Q9BT22)
inactive: IRAK-1-4 Inhibitor I -0.028 | ibrutinib 0.034 | [1] -0.004 | ralimetinib -0.072 | [2] -0.045 | [3] 0.152 | [4] -0.028 | pinometostat -0.021 | [5] 0.015 | [6] 0.153 | [7] -0.036 | [8] 0 | [9] -0.032 | [10] 0.002 | Nexturastat A -0.097 | vemurafenib 0.014 | [11] 0.026 | [12] 0.009 | givinostat -0.065 | barasertib -0.013

AGO2 (UniProt Q9UKV8)
inactive: IRAK-1-4 Inhibitor I -0.011 | ibrutinib 0.007 | [1] 0.012 | ralimetinib -0.006 | [2] 0.038 | [3] 0.062 | [4] -0.009 | pinometostat -0.019 | [5] 0.008 | [6] 0.221 | [7] -0.01 | [8] 0.041 | [9] -0.014 | [10] 0.024 | Nexturastat A 0.012 | vemurafenib -0.012 | [11] -0.005 | [12] 0.003 | givinostat 0.008 | barasertib -0.045

ALDH1L2 (UniProt Q3SY69)
inactive: IRAK-1-4 Inhibitor I 0.004 | ibrutinib -0.041 | [1] 0 | ralimetinib 0.058 | [2] -0.158 | [3] -0.098 | [4] 0.049 | pinometostat 0.047 | [5] -0.076 | [6] 0.122 | [7] -0.015 | [8] 0.025 | [9] 0.1 | [10] -0.087 | Nexturastat A -0.059 | vemurafenib 0.061 | [11] -0.032 | [12] 0.028 | givinostat -0.014 | barasertib 0.117

ALDH1A1 (UniProt P00352)
inactive: IRAK-1-4 Inhibitor I 0.022 | ibrutinib 0.128 | [1] 0.018 | ralimetinib -0.009 | [2] -0.001 | [3] 0.047 | [4] -0.037 | pinometostat -0.022 | [5] -0.027 | [6] -0.001 | [7] 0.032 | [8] -0.041 | [9] 0.038 | [10] 0.035 | Nexturastat A -0.079 | vemurafenib 0.003 | [11] 0.013 | [12] 0.004 | givinostat 0.035 | barasertib -0.015

2 entries drawn at random from the list so far:
ALDH1L2 (UniProt Q3SY69)
inactive: IRAK-1-4 Inhibitor I 0.004 | ibrutinib -0.041 | [1] 0 | ralimetinib 0.058 | [2] -0.158 | [3] -0.098 | [4] 0.049 | pinometostat 0.047 | [5] -0.076 | [6] 0.122 | [7] -0.015 | [8] 0.025 | [9] 0.1 | [10] -0.087 | Nexturastat A -0.059 | vemurafenib 0.061 | [11] -0.032 | [12] 0.028 | givinostat -0.014 | barasertib 0.117

ANAPC1 (UniProt Q9H1A4)
inactive: IRAK-1-4 Inhibitor I -0.043 | ibrutinib -0.025 | [1] -0.01 | ralimetinib 0.034 | [2] -0.02 | [3] -0.059 | [4] -0.018 | pinometostat 0.035 | [5] 0.009 | [6] -0.033 | [7] -0.011 | [8] 0.007 | [9] -0.013 | [10] -0.024 | Nexturastat A 0.029 | vemurafenib -0.007 | [11] 0 | [12] 0.04 | givinostat 0.003 | barasertib -0.007

Further records:

AHCY (UniProt P23526)
inactive: IRAK-1-4 Inhibitor I 0.007 | ibrutinib 0.009 | [1] 0.034 | ralimetinib 0.01 | [2] -0.013 | [3] 0.061 | [4] -0.029 | pinometostat -0.079 | [5] 0.015 | [6] -0.009 | [7] 0.017 | [8] 0.011 | [9] 0.003 | [10] 0.017 | Nexturastat A -0.067 | vemurafenib -0.04 | [11] -0.031 | [12] -0.025 | givinostat -0.099 | barasertib 0.007

ANAPC10 (UniProt Q9UM13)
inactive: IRAK-1-4 Inhibitor I 0.039 | ibrutinib -0.01 | [1] 0.004 | ralimetinib 0.057 | [2] 0.045 | [3] -0.074 | [4] 0.022 | pinometostat 0.001 | [5] 0.047 | [6] -0.083 | [7] 0.024 | [8] 0.02 | [9] -0.052 | [10] 0.082 | Nexturastat A 0.158 | vemurafenib 0.057 | [11] 0.036 | [12] 0.013 | givinostat -0.039 | barasertib -0.023

AK4 (UniProt P27144)
inactive: IRAK-1-4 Inhibitor I -0.004 | ibrutinib -0.008 | [1] -0.033 | ralimetinib -0.097 | [2] -0.045 | [3] -0.025 | [4] -0.026 | pinometostat -0.051 | [5] -0.025 | [6] 0.115 | [7] 0.019 | [8] -0.027 | [9] -0.017 | [10] -0.01 | Nexturastat A -0.008 | vemurafenib 0.032 | [11] -0.005 | [12] -0.042 | givinostat 0.017 | barasertib 0.003

ADO (UniProt Q96SZ5)
inactive: IRAK-1-4 Inhibitor I 0.002 | ibrutinib -0.007 | [1] -0.045 | ralimetinib 0.028 | [2] -0.013 | [3] 0.014 | [4] 0.011 | pinometostat 0.003 | [5] 0.011 | [6] 0.054 | [7] -0.022 | [8] 0.058 | [9] 0.033 | [10] -0.02 | Nexturastat A -0.001 | vemurafenib -0.024 | [11] -0.016 | [12] -0.061 | givinostat 0.032 | barasertib 0.029

AGFG1 isoform 4 (UniProt P52594)
inactive: IRAK-1-4 Inhibitor I -0.022 | ibrutinib -0.008 | [1] -0.025 | ralimetinib 0.011 | [2] -0.072 | [3] 0.074 | [4] 0.01 | pinometostat -0.096 | [5] -0.037 | [6] 0.021 | [7] 0.019 | [8] -0.031 | [9] 0 | [10] 0.178 | Nexturastat A -0.158 | vemurafenib 0.025 | [11] 0.042 | [12] 0.043 | givinostat 0.028 | barasertib 0.001

AKAP12 (UniProt Q02952)
inactive: IRAK-1-4 Inhibitor I 0.104 | ibrutinib 0.07 | [1] -0.036 | ralimetinib -0.009 | [2] 0.048 | [3] 0.058 | [4] 0.065 | pinometostat 0.088 | [5] -0.183 | [6] -0.053 | [7] -0.118 | [8] 0.015 | [9] -0.05 | [10] -0.164 | Nexturastat A 0.099 | vemurafenib -0.087 | [11] 0.006 | [12] -0.081 | givinostat 0.018 | barasertib 0.056

AMDHD2 isoform 3 (UniProt Q9Y303)
inactive: IRAK-1-4 Inhibitor I 0.042 | ibrutinib 0.005 | [1] -0.007 | ralimetinib -0.051 | [2] -0.106 | [3] -0.032 | [4] 0.035 | pinometostat -0.029 | [5] -0.016 | [6] 0.088 | [7] -0.018 | [8] -0.022 | [9] -0.01 | [10] -0.043 | Nexturastat A 0.071 | vemurafenib -0.032 | [11] 0.001 | [12] -0.014 | givinostat 0.016 | barasertib -0.02
